Assay results published in PubChem BioAssay AID256 (DTP/NCI, 2004).
The list is a part of this screen's results and no random one: it is rich in T/C values a quarter to a half above the control, in often repeated tests (any T/C) and in doses without a T/C. Further doses and runs are listed elsewhere. T/C is the treated group as % of the vehicle group. Some doses have a count of surviving animals in place of a T/C: the source files T/C as zero there, which appears to mark a toxic dose or a test without result, not a measured value. Some survivor counts are full or nearly so, which does not show that the dose was tolerated: survival well below the control is almost never listed, so the zero probably covers shortened survival too. Counts of survivors are from the toxicity check (mostly the fifth day) where no day follows; animals may have died later. Schedules are NCI's codes, taken here to give the interval after Q, in days (D) or hours (H), and the number of doses after X. Some doses were run more than once; their values stand side by side, smallest first. Where survival is the endpoint, the PubChem record calls one and a half times the control and up active, and a quarter to a half above the control has no call in these data; cut-offs in other NCI protocols can differ.

System: CD2F1 mice, L1210 leukemia ip, survival T/C
Assay: NCI In Vivo Anticancer Drug Screen. Data for tumor model L1210 Leukemia (intraperitoneal) in CD2F1 (CDF1) mice
Settings: higher T/C = longer survival
Procedure, shortened: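 Antitumor effect is scored in animals hosting a serially transplanted tumor. Values compare compound-dosed animals against vehicle-only controls as a simple quotient.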

[1] = T/C endpoint: mean survival time, dose: 100.0 mg/kg/injection, schedule: Q04DX003 (ip), vehicle: saline
[2] = T/C endpoint: mean survival time, dose: 200.0 mg/kg/injection, schedule: Q01DX001 (ip), vehicle: saline
[3] = T/C endpoint: mean survival time, dose: 400.0 mg/kg/injection, schedule: Q01DX001 (ip), vehicle: saline
[4] = T/C endpoint: mean survival time, dose: 300.0 mg/kg/injection, schedule: Q01DX001 (ip), vehicle: saline

Compound: CC1CN(Cc2ccccc2)C1
- survivor count (T/C endpoint: mean survival time, dose: 100.0 mg/kg/injection, schedule: Q01DX001 (ip), vehicle: acetone): 0 of 6
- survivor count (T/C endpoint: mean survival time, dose: 200.0 mg/kg/injection, schedule: Q01DX001 (ip), vehicle: acetone): 0 of 6
- survivor count (T/C endpoint: mean survival time, dose: 400.0 mg/kg/injection, schedule: Q01DX001 (ip), vehicle: acetone): 0 of 6

Compound: COc1ccc(CCN2C(=O)C=CC2=O)cc1OC
- survivor count (T/C endpoint: mean survival time, dose: 20.0 mg/kg/injection, schedule: Q01DX009 (ip), vehicle: saline): 1 of 6
- survivor count (T/C endpoint: mean survival time, dose: 40.0 mg/kg/injection, schedule: Q01DX001 (ip), vehicle: saline): 0 of 6
- survivor count (T/C endpoint: mean survival time, dose: 80.0 mg/kg/injection, schedule: Q01DX001 (ip), vehicle: saline): 0 of 6

Compound: N#CCCC(C#N)(c1cccnc1)N1CCOCC1 (stereo not drawn)
- survivor count (T/C endpoint: mean survival time, dose: 50.0 mg/kg/injection, schedule: Q01DX009 (ip), vehicle: Klucel (hydroxypropylcellulose) (HPC)): 0 of 3 and 1 of 3
- survivor count (T/C endpoint: mean survival time, dose: 50.0 mg/kg/injection, schedule: Q04DX002 (ip), vehicle: saline with Tween-80): 1 of 3
- survivor count (T/C endpoint: mean survival time, dose: 100.0 mg/kg/injection, schedule: Q01DX009 (ip), vehicle: Klucel (hydroxypropylcellulose) (HPC)): 0 of 3
- survivor count (T/C endpoint: mean survival time, dose: 100.0 mg/kg/injection, schedule: Q04DX002 (ip), vehicle: saline with Tween-80): 0 of 3
- survivor count (T/C endpoint: mean survival time, dose: 200.0 mg/kg/injection, schedule: Q01DX009 (ip), vehicle: Klucel (hydroxypropylcellulose) (HPC)): 0 of 3

Compound: CON(C)N=Nc1ccc(C(N)=O)cc1
- T/C (T/C endpoint: mean survival time, dose: 300.0 mg/kg/injection, schedule: Q01DX009 (ip), vehicle: Klucel (hydroxypropylcellulose) (HPC)): 130 % of control

Compound: C=CCOCC(O)CN(CCC)CCC (stereo not drawn)
- survivor count [1]: 6 of 6
- survivor count (T/C endpoint: mean survival time, dose: 200.0 mg/kg/injection, schedule: Q04DX003 (ip), vehicle: saline with Tween-80): 1 of 6
- survivor count (T/C endpoint: mean survival time, dose: 400.0 mg/kg/injection, schedule: Q04DX003 (ip), vehicle: saline with Tween-80): 0 of 6

Compound: C/C(=N\NC(=S)N1CC2CCC(CC2)C1)c1nccs1
- T/C (T/C endpoint: median survival time, dose: 25.0 mg/kg/injection, schedule: Q01DX009 (ip), vehicle: saline with Tween-80): 125 % of control
- survivor count (T/C endpoint: median survival time, dose: 100.0 mg/kg/injection, schedule: Q01DX009 (ip), vehicle: saline with Tween-80): 2 of 6 and 5 of 6
- survivor count (T/C endpoint: median survival time, dose: 200.0 mg/kg/injection, schedule: Q01DX009 (ip), vehicle: saline with Tween-80): 0 of 6

Compound: c1ccc2c(c1)[nH]c1c3[n+](ccc12)CCCC3
- survivor count [2]: 0 of 6
- survivor count [3]: 0 of 6

Compound: CN(C)CCCN(C)CCCN(C)C
- survivor count [4]: 2 of 6

Compound: [Cl][Sn]([Cl])([c]1ccccc1)[c]1ccccc1
- survivor count (T/C endpoint: mean survival time, dose: 100.0 mg/kg/injection, schedule: Q01DX001 (ip), vehicle: saline): 0 of 3
- survivor count [2]: 0 of 3
- survivor count [3]: 0 of 3

Compound: CCOC(OCC)/C(C)=N/[N+](C)(C)C
- survivor count [4]: 3 of 6

Compound: CN1CC(=O)NC1=S
- survivor count [2]: 1 of 3
- survivor count [3]: 0 of 3

Compound: OC1(c2ccccc2)CCN(C/C=C/c2ccc(Cl)cc2)CC1
- survivor count (T/C endpoint: median survival time, dose: 100.0 mg/kg/injection, schedule: Q04DX003 (ip), vehicle: saline with Tween-80): 3 of 3
- survivor count (T/C endpoint: median survival time, dose: 200.0 mg/kg/injection, schedule: Q04DX003 (ip), vehicle: saline with Tween-80): 0 of 3

Compound: C1CCN(CN2CCCCC2)CC1
- survivor count [1]: 4 of 6

Compound: CS(C)=O.CS(C)=O.[Cl][Rh]([Cl])([Cl])[Cl]
- survivor count (T/C endpoint: mean survival time, dose: 200.0 mg/kg/injection, schedule: Q04DX003 (ip), vehicle: saline): 0 of 6
- survivor count (T/C endpoint: mean survival time, dose: 400.0 mg/kg/injection, schedule: Q04DX003 (ip), vehicle: saline): 0 of 6

Compound: COc1ccc(Cl)cc1C/C=N/N(C)C
- survivor count [4]: 2 of 6
